Source: the supplement of paper PMC9135407
Where “and” joins values, the source holds several entries; their conditions need not be identical. Identical values can stand only once. Counter-ions that a name gives are not always drawn. ± gives the standard deviation of the averaged measurements. This is one part of the list. Plates or batches differ in their baseline, so values are only roughly comparable.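 Primary human stellate myofibroblasts activated in culture; inactivation shown by regained lipid droplets. Readout: fraction of Hoechst-counted cells exceeding a per-plate Bodipy threshold, duplicate wells, each plate with DMSO negative and nortriptyline positive controls. Hits: control-normalized score beyond the plate's top-tenth-percentile nortriptyline wells, or among its three best wells. Final well concentrations unstated.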

System: primary human hepatic stellate cells (donor 1)
Experiment: percent Bodipy-positive cells; higher = more lipid droplet accumulation
Conditions: 48 h
[1] = library stock concentration: 3.33 mM
[2] = library stock concentration: 10 mM
[3] = library stock concentration: 1 mM
[4] = library stock concentration: 80 uM
[5] = library stock concentration: 400 uM
[6] = library stock concentration: 2 mM

SMILES: COc1ccc([C@@H]2Sc3ccccc3N(CCN(C)C)C(=O)[C@@H]2OC(C)=O)cc1 [Diltiazem HCl]
- percent Bodipy-positive cells [1]: 13.35 ± 0.049%
- percent Bodipy-positive cells [2]: 55.1 ± 8.3%

SMILES: COc1ccc([C@@H]2Sc3ccccc3N(CCN(C)C)C(=O)[C@@H]2OC(C)=O)cc1 [Diltiazem hydrochloride]
- percent Bodipy-positive cells: 42.4 ± 4.9%
- percent Bodipy-positive cells (library stock concentration: 4.4 mM): 43 ± 15%

SMILES: COc1ccc([C@@H]2Sc3ccccc3N(CCN(C)C)C(=O)[C@@H]2OC(C)=O)cc1
- percent Bodipy-positive cells [2]: 74.8 ± 2%

SMILES: CCCCC[C@H](O)/C=C/[C@@H]1[C@@H](CC(=O)CCCCC(=O)O)[C@@H](O)C[C@H]1O [6-Keto-prostaglandin F1a]
- percent Bodipy-positive cells [3]: 16.9 ± 18%

SMILES: CCCCC[C@H](O)/C=C/[C@@H]1[C@@H](CC(=O)CCCCC(=O)O)[C@@H](O)C[C@H]1O [6-keto Prostaglandin F1.alpha.]
- percent Bodipy-positive cells [3]: 13.5 ± 3.5%

SMILES: CCCCCCCCCCOc1cc2c(O)c(C(=O)OCC)cnc2cc1OCC [Decoquinate]
- percent Bodipy-positive cells (library stock concentration: 4.8 mM): 11.4 ± 7.3%

SMILES: COc1ccc2c(c1)C(=O)N(CCc1ccc(S(=O)(=O)NC(=O)NC3CCCCC3)cc1)C(=O)C2(C)C [Gliquidone]
- percent Bodipy-positive cells: 7.59 ± 1.6%

SMILES: C=CCc1ccc(O)c(-c2cc(CC=C)ccc2O)c1 [Magnolol]
- percent Bodipy-positive cells [1]: 11.3 ± 9.7%
- percent Bodipy-positive cells [2]: 73.9 ± 14%

SMILES: CC(=N)NCc1cccc(CN)c1 [1400W dihydrochloride]
- percent Bodipy-positive cells [2]: 8.74 ± 4.8%

SMILES: NS(=O)(=O)Cc1noc2ccccc12 [Zonisamide]
- percent Bodipy-positive cells [1]: 25.24 ± 0.23%
- percent Bodipy-positive cells (library stock concentration: 9.4 mM): 7.92 ± 2.6%

SMILES: CC(C)c1cccc(=O)c(O)c1 [Hinokitiol]
- percent Bodipy-positive cells (library stock concentration: 30.5 mM): 38 ± 9.2%

SMILES: CN(C)CCN(Cc1ccc(Cl)cc1)c1ccccn1 [Chloropyramine hydrochloride]
- percent Bodipy-positive cells: 34.5 ± 1%

SMILES: CC(C[N+](C)(C)C)OC(N)=O (stereo not given) [Bethanechol chloride]
- percent Bodipy-positive cells: 7.71 ± 0.18%
- percent Bodipy-positive cells [1]: 6.04 ± 1.4%

SMILES: CC(C[N+](C)(C)C)OC(N)=O (stereo not given) [Urecholine]
- percent Bodipy-positive cells [2]: 31.5 ± 6.4%

SMILES: COc1ccc(C[C@H](NC(=O)[C@H](C)NC(=O)CN2CCOCC2)C(=O)N[C@@H](Cc2ccccc2)C(=O)[C@@]2(C)CO2)cc1
- percent Bodipy-positive cells [1]: 96.1 ± 4.7%
- percent Bodipy-positive cells [2]: 99.29 ± 0.18%

SMILES: O=C1C(Cl)=C(N2C(=O)CCC2=O)C(=O)c2ccccc21 [MEK Inhibitor II]
- percent Bodipy-positive cells [1]: 40.4 ± 5.8%

SMILES: CC(C)(C)c1ccc(S(=O)(=O)/C=C/C#N)cc1
- percent Bodipy-positive cells [2]: 98.1 ± 1.6%

SMILES: Cc1ccc2nc(NCCN)c3ncc(C)n3c2c1
- percent Bodipy-positive cells [4]: 7.88 ± 4.8%
- percent Bodipy-positive cells [5]: 7.61 ± 0.32%
- percent Bodipy-positive cells [6]: 9.78 ± 7.7%
- percent Bodipy-positive cells [1]: 38 ± 7.7%
- percent Bodipy-positive cells [2]: 89.2% and 74.5%

SMILES: N[C@@H](Cc1c[nH]cn1)C(=O)O [L-Histidine hydrochloride]
- percent Bodipy-positive cells [2]: 35.6 ± 20%

SMILES: CC(C)CCOc1ccc(NC(=S)Nc2ccc(OCCC(C)C)cc2)cc1 [Thiocarlide]
- percent Bodipy-positive cells [3]: 12.4 ± 4%

SMILES: Cc1ccc(Cl)cc1N(CC(=O)Nc1c(F)cccc1F)S(C)(=O)=O
- percent Bodipy-positive cells [1]: 38.9 ± 0.76%
- percent Bodipy-positive cells [2]: 45.2 ± 1.4%

SMILES: COc1cc2c(cc1OC)-c1c/c(=N\c3c(C)cc(C)cc3C)n(C)c(=O)n1CC2 [Trequinsin]
- percent Bodipy-positive cells (library stock concentration: 4.9 mM): 21 ± 3.7%
- percent Bodipy-positive cells (library stock concentration: 12.3 mM): 38.8 ± 9.4%

SMILES: Cc1cccc(Nc2ccncc2S(=O)(=O)NC(=O)NC(C)C)c1 [Torsemide]
- percent Bodipy-positive cells: 10 ± 5.8%
- percent Bodipy-positive cells [2]: 39.8 ± 5.8%

SMILES: Cc1cccc(Nc2ccncc2S(=O)(=O)NC(=O)NC(C)C)c1
- percent Bodipy-positive cells (library stock concentration: 9.9 mM): 7.71 ± 6.8%

SMILES: CCCCC/C=C\C/C=C\C/C=C\C/C=C\CCCC(=O)NC[C@]1(C)CCC[C@]2(C)c3ccc(C(C)C)cc3CC[C@@H]12 [Arachidonic Acid Leelamide]
- percent Bodipy-positive cells [3]: 7.62 ± 1.3%

SMILES: COc1ccc(-c2nc3cc(F)ccc3s2)cc1OC
- percent Bodipy-positive cells [3]: 9.1 ± 0.76%

SMILES: O=C(O)CCCC[C@@H]1CCSS1 [Thioctic acid]
- percent Bodipy-positive cells [2]: 34.9 ± 2.4%

SMILES: C=N[C@@H](C(=O)N[C@@H]1C(=O)N2[C@@H]1SC(C)(C)[C@@H]2C(=O)O)c1ccccc1 [Metampicillin sodium salt]
- percent Bodipy-positive cells: 27 ± 14%

SMILES: CC[N+](CC)(CC(=O)Nc1c(C)cccc1C)Cc1ccccc1 [Denatonium benzoate]
- percent Bodipy-positive cells: 9.64 ± 3%
- percent Bodipy-positive cells (library stock concentration: 4.5 mM): 11.9 ± 0.36%

SMILES: COc1cc(NS(=O)(=O)c2ccc(N)cc2)nc(OC)n1 [Sulphadimethoxine]
- percent Bodipy-positive cells [1]: 6.32 ± 2.1%
- percent Bodipy-positive cells [2]: 14.7 ± 5.2%

SMILES: COc1cc(NS(=O)(=O)c2ccc(N)cc2)nc(OC)n1 [Sulfadimethoxine]
- percent Bodipy-positive cells: 4.49 ± 2.3%
- percent Bodipy-positive cells (library stock concentration: 6.4 mM): 6.3% and 15.3%
- percent Bodipy-positive cells [2]: 17.33 ± 0.032%

SMILES: COc1cc2ccc(=O)oc2cc1O [Scopoletin]
- percent Bodipy-positive cells: 6.31 ± 2.2%
- percent Bodipy-positive cells [2]: 35.7 ± 22%

SMILES: CC1(C)O[C@@H]2[C@@H](CO[C@@]3(COS(N)(=O)=O)OC(C)(C)O[C@@H]23)O1
- percent Bodipy-positive cells [2]: 6.21 ± 0.41%

SMILES: CC1(C)O[C@@H]2[C@@H](CO[C@@]3(COS(N)(=O)=O)OC(C)(C)O[C@@H]23)O1 [Topiramate]
- percent Bodipy-positive cells [1]: 35.5 ± 4.1%
- percent Bodipy-positive cells (library stock concentration: 5.9 mM): 10.8 ± 4%

SMILES: CN(C)CCC=C1c2ccccc2C=Cc2ccccc21.Cl [Cyclobenzaprine HCl]
- percent Bodipy-positive cells [1]: 64.2 ± 5.8%

SMILES: CN(C)c1cc(NC(=O)CNC(C)(C)C)c(O)c2c1C[C@H]1C[C@H]3[C@H](N(C)C)C(O)=C(C(N)=O)C(=O)[C@@]3(O)C(O)=C1C2=O
- percent Bodipy-positive cells [2]: 32.2 ± 11%

SMILES: CCNc1nc(Nc2cc(F)c(C(=O)N3CCOCC3)cc2OC)ncc1C(F)(F)F
- percent Bodipy-positive cells [4]: 12 ± 4.3%
- percent Bodipy-positive cells [5]: 10.7 ± 2.4%
- percent Bodipy-positive cells [6]: 10.1 ± 0.81%
- percent Bodipy-positive cells [1]: 27.5 ± 0.56%

SMILES: NCCC(=O)NCCc1c[nH]cn1 [Carcinine]
- percent Bodipy-positive cells: 23.4 ± 1.1%
